Some of the results follow. The main result of the screen is listed elsewhere. These columns were measured beside it and carry no call. Compounds called inactive in the main read-out are mostly missing here. The note in brackets gives the kind of curve behind each potency; many fits are weak.

For orientation: AC50 means the midpoint of the concentration-response curve, whichever way the signal moves. Higher therefore signals weaker potency.

This experiment can be described thus: qHTS Assay for Lipid Storage Modulators in Drosophila S3 Cells.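 As to cell number change: cells counted by Cell Tracker Red CMTPX staining in the red channel.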 The settings on record: BODIPY lipid droplet fluorescence, 18-24 h; for cell number change: measured here: cell count max response, cells fed with added oleic acid. The method in brief: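 Drosophila S3 cells got compounds at several concentrations plus oleic acid (400 uM solution). Laser-scanning cytometry with 488 nm excitation read lipid droplets at 500-530 nm and cells at 575-640 nm. Percent activity was relative to 20 uM Triacsin C.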
Background: In qHTS, concentration-response curves come from the screen itself.

Where [1] appears, read: measured here: cell number channel AC50, cells fed with added oleic acid.
The mark [2] stands for this setting: measured here: lipid fluorescence (Fed channel) AC50, cells fed with added oleic acid.

With `CCN(CC)C(=O)CN(c1ccc(F)c(Cl)c1)S(C)(=O)=O`, the cell number change turned out to be 8.89%.

Regarding `CCOC(=O)c1nn(-c2ccccc2)c(=O)c2c(N)scc12`, the cell number change was -22.1%.

For `CCOC(=O)[C@@H]1[C@H]2COc3cc(OC)ccc3[C@H]2N2C(=O)N(c3cccc(Cl)c3)C(=O)[C@]12C`, the cell number change turned out to be 102%. Under setting [1], the half-maximal activity concentration (AC50) was 32.6 µM [rising, single point]. For the same compound, the AC50 under setting [2] is 6.51 µM [rising, single point].

As to `O=C1c2ccccc2C(=O)c2c1oc(C(F)(F)F)c2C(=O)c1ccccc1`, the cell number change is -6.83%. Besides, the concentration at half-maximal activity (AC50) under setting [2] was 0.259 µM [rising, full curve].

For the compound `CC1CN(S(=O)(=O)c2cc(C(=O)NCCC3=CCCCC3)ccc2Cl)CC(C)O1` (stereo not given), the cell number change is -88.4%.

On to `C=CCN1C(=O)C(C)NC1=S` (stereo not given), for which the cell number change was determined as 32.4%. In addition, the AC50 under setting [1] is 0.326 µM [rising, full curve].

With `OC12CC3C[C@H](C1)C(N1CCOCC1)[C@@H](C3)C2` (stereo not given in full), the cell number change came out at 9.26%. Also, under setting [2], the AC50 is 4.61 µM [rising, full curve].

Take `Cn1cccc1CC(=O)NNC(=S)Nc1ccc(Cl)cc1`: the cell number change amounted to 3.58%. For the same compound, under setting [2], the AC50 is 29.1 µM [rising, single point].

Turning to `Cc1nn(-c2ccccc2)c(Cl)c1C(=O)NCC(C)c1ccccc1` (stereo not given), the cell number change stood at 14%. Under setting [2], the AC50 was 0.13 µM [rising, full curve, poor fit].

Take `O=C(Nc1cccc(-n2cnnn2)c1)c1ccc(OC(F)(F)F)cc1`: the cell number change was found to be 22.6%.

`O=S(=O)(c1ccc(Br)cc1)N1CCCc2ccccc21`: the cell number change was -39.4%. In addition, the AC50 under setting [1] is 18.4 µM [falling, single point].

On to `CSc1nc(=NC(C)=O)ss1`, for which the cell number change is -176%. Also, the AC50 under setting [1] is 29.1 µM [falling, single point]. In addition, under setting [2], the concentration at half-maximal activity (AC50) is 5.17 µM [falling, full curve].

With `CC1(C)CC(CCNC(=O)CCl)(c2ccccc2)CCO1` (stereo not given), the cell number change amounted to 16.4%.

As to `CCOc1ccccc1OCCOc1ccc(F)cc1`, the cell number change was -21.9%.

In the case of `O=S(=O)(c1cc(Cl)ccc1Br)N1CCOCC1`, the cell number change is 7.11%. Moreover, the AC50 under setting [2] was 2.91 µM [falling, partial curve].

For `O=C(NNC(=S)Nc1cccc2ccccc12)c1cccc(Br)c1`, the cell number change came out at 46.8%. For the same compound, the AC50 under setting [1] was 0.411 µM [rising, full curve, poor fit].

As to `CC(C)N(C(=O)CSc1nc2ccccc2n1Cc1ccc(F)cc1)C(C)C`, the cell number change is -32%. Further, the AC50 under setting [1] was 20.6 µM [falling, single point]. The AC50 under setting [2] is 29.1 µM [falling, single point].

For `CCC1CCCCN1CCNS(=O)(=O)c1ccc2c(c1)oc(=O)n2C` (stereo not given), the cell number change stood at 0.404%. For the same compound, the AC50 under setting [2] is 0.411 µM [rising, partial curve, poor fit].

For the compound `COc1ccc(-c2csc3ncnc(N4CCN(S(=O)(=O)c5ccc(C)c(C)c5)CC4)c23)cc1`, the cell number change is 8.15%. For the same compound, the AC50 under setting [2] is 0.184 µM [rising, full curve, poor fit].

Turning to `CCCC/C(O)=C1\C(=O)CC(C)(C)CC1=Nc1ccccc1OC`, the cell number change was 21%.

`O=C(C1CCN(S(=O)(=O)c2cccc3cccnc23)CC1)N1CCN(c2ccc(Cl)cc2)CC1`: the cell number change came out at 15.6%. Moreover, the AC50 under setting [2] was 23.1 µM [falling, single point].

On to `O=C(N/N=C/c1c(O)ccc2ccccc12)c1ccc(Br)o1`, for which the cell number change turned out to be 117%. Under setting [1], the AC50 was 29.1 µM [rising, single point].

Consider `CCC(NC(=O)CNC(=O)c1ccc2c(c1)OCO2)c1ccc(Br)cc1` (stereo not given), for which the cell number change is 39.8%. Also, under setting [1], the AC50 is 23.1 µM [rising, single point].

For the compound `COC(=O)c1cn(NC(=O)Cc2ccc(Cl)cc2)c(=O)c2ccccc12`, the cell number change was -1.28%. Moreover, the AC50 under setting [1] was 6.51 µM [rising, single point].

With `COc1ccc(/C=N/NC(=O)c2nc(Cl)c(Cl)c(N)c2Cl)cc1COc1ccccc1F`, the cell number change came out at 3.75%. Also, the AC50 under setting [1] was 3.66 µM [rising, single point].

Regarding `O=c1c2cc(Cl)cc(Cl)c2nc2n1CCC2`, the cell number change was 92.3%. Also, the AC50 under setting [1] is 0.366 µM [rising, full curve, poor fit].

With `Cc1ccccc1NC(=O)COC(=O)c1cc(S(=O)(=O)N2CCOCC2)ccc1C`, the cell number change amounted to 28.7%. Also, the AC50 under setting [2] is 32.6 µM [rising, partial curve, poor fit].

On to `O=c1c2c3c(sc2nc2n1CCC2)CCCCC3`, for which the cell number change was 22.2%.

`COc1ccccc1NS(=O)(=O)c1cccc(NC(=O)Nc2ccc(Cl)cc2)c1`: the cell number change was -17.8%. The AC50 under setting [2] was 0.00326 µM [falling, full curve, poor fit].

On to `O=C(NCCN1C(=O)S/C(=C\c2cccs2)C1=O)[C@H](Cc1ccccc1)N1C(=O)c2ccccc2C1=O`, for which the cell number change is -47.5%. Further, the AC50 under setting [1] was 18.4 µM [falling, single point].

In the case of `C/C(=N\NC(=O)c1cccc(C)c1)c1cccc(NC(=O)c2ccco2)c1`, the cell number change is -31.6%. For the same compound, the AC50 under setting [1] is 29.1 µM [falling, single point]. In addition, the AC50 under setting [2] was 29.1 µM [falling, single point].

For `CC(C)(C)C(=O)/C=C1\NC(=O)CS1`, under setting [2], the AC50 was 0.326 µM [rising, partial curve, poor fit].

On to `COc1ccccc1CCC(=O)NNC(=O)c1ccncc1`, for which the cell number change was -6.66%. For the same compound, the AC50 under setting [1] was 0.411 µM [falling, full curve, poor fit]. In addition, the AC50 under setting [2] is 1.84 µM [falling, partial curve, poor fit].

For `c1coc(C2OCC3(CO2)COC(c2ccco2)OC3)c1` (stereo not given), the cell number change is -23.9%.

Regarding `CC1(C)Cc2ccccc2/C(=C/C(=O)N2CCCCCC2)N1`, the cell number change was 23%. In addition, the AC50 under setting [2] was 7.31 µM [rising, partial curve, poor fit].

With `CCOc1ccc(CN(C)C(=O)c2ccc(NC(=O)CC3SC(N4CCCC4)=NC3=O)cc2)cc1` (stereo not given), under setting [2], the AC50 was 0.00411 µM [rising, full curve, poor fit].

`Cc1ccc(-c2c(C#N)c(N)nc3c2CCCCC3)o1`: the cell number change was 0.0123%. Besides, the AC50 under setting [2] is 0.82 µM [rising, full curve, poor fit].

Take `COc1cccc(-c2ccc(NC(=O)C3CCCN(Cc4cnn(C)c4C)C3)cc2)c1` (stereo not given): the cell number change was determined as 14.7%.

Take `Cc1cccc(NC(=O)CCNS(=O)(=O)c2cccc3nsnc23)c1C`: the cell number change is 13.3%.

Consider `COc1ccc(N(CC(=O)N2CCN(c3ccccc3F)CC2)S(=O)(=O)c2c(C)n[nH]c2C)cc1`, for which the cell number change came out at 18.5%. Also, under setting [1], the AC50 was 0.651 µM [falling, single point]. The AC50 under setting [2] is 0.58 µM [falling, single point].

Consider `CCOC(=O)C1CCCN(C(=O)CCCOc2cc(=O)n(C)c3ccccc23)C1` (stereo not given), for which the cell number change was found to be 131%. Under setting [1], the AC50 was 16.4 µM [rising, partial curve, poor fit]. Besides, the AC50 under setting [2] was 6.51 µM [rising, single point].

In the case of `Cc1nn(Cc2ccc([N+](=O)[O-])cc2)c(=O)n1N(C)c1ncc(C(F)(F)F)cc1Cl`, the cell number change was 16.3%. Besides, under setting [2], the AC50 is 2.59 µM [rising, partial curve].

With `c1cncc(C(c2nnnn2C2CCCC2)N2CCCC2)c1` (stereo not given), the cell number change was 11.8%. In addition, the AC50 under setting [1] is 0.13 µM [rising, full curve]. Also, the AC50 under setting [2] was 0.146 µM [rising, full curve].

As to `O=C(CSc1nnc(CNC(=O)c2ccco2)o1)Nc1nc2ccccc2s1`, the cell number change was -27.9%. Under setting [2], the AC50 was 25.9 µM [falling, single point].

Consider `O=C(CSCc1n[nH]c(=O)[nH]1)NCCOc1cccc(Oc2ccccc2)c1`, for which the cell number change came out at 2.43%.

As to `Cc1ccc(S(=O)(=O)N(C)c2ccc(OCC(=O)Nc3ccc(C(=O)N(C)C)cc3)cc2)cc1C`, the cell number change is -6.84%.

As to `Cc1cccc2c(N=Nc3ccccc3)c(O)[nH]c12`, the cell number change stood at 147%. Under setting [1], the AC50 was 20.6 µM [rising, single point].

In the case of `Brc1ccc(-c2nc3ncccn3c2NC2CCCCC2)o1`, the cell number change came out at 26.4%. In addition, the AC50 under setting [1] is 4.11 µM [rising, single point]. Also, the AC50 under setting [2] was 16.4 µM [rising, partial curve].

Consider `Cc1nnc(NC(=O)CSc2nnc(CCc3nc4ccccc4[nH]3)n2C)s1`, for which the cell number change was 4.61%.

With `CSc1ccc(C2N=C(c3ccccc3)NO2)cc1` (stereo not given), the cell number change worked out at 4.03%. Moreover, the AC50 under setting [2] was 2.91 µM [rising, single point].

As to `C/C(N)=C(/C#N)C(=O)COC(=O)CCC1CCCC1`, the cell number change is -106%. For the same compound, under setting [1], the AC50 was 23.1 µM [falling, partial curve].

Consider `COc1ccc(C(C#N)(CCC#N)CCC#N)cc1OC`, for which the cell number change stood at 0.431%. Further, the AC50 under setting [2] was 29.1 µM [falling, single point].

Take `O=C(Cc1ccc(S(=O)(=O)N2CCOCC2)s1)Nc1ccc(N2CCOCC2)cc1`: the cell number change amounted to 50.7%.

With `CCC(O)(C(=O)Nc1ccccc1C(F)(F)F)c1ccccc1OC` (stereo not given), the cell number change was -6.75%. The AC50 under setting [2] is 29.1 µM [rising, single point].

As to `COc1ccc(-n2c(SC(CN3CCCCC3)CN3CCCC3=O)nc3ccccc3c2=O)cc1` (stereo not given), the cell number change was -29.1%. In addition, under setting [2], the AC50 was 10.3 µM [falling, partial curve].

Regarding `CCC(C(=O)OC)n1cnc2c(nnn2-c2cccc(OC)c2)c1=O` (stereo not given), the cell number change stood at 51.4%. Moreover, the AC50 under setting [1] was 10.3 µM [rising, partial curve, poor fit].

With `O=C(CN1c2cccc3cccc(c23)S1(=O)=O)N1CCOCC1`, the cell number change came out at 7.14%. Besides, under setting [2], the AC50 is 0.206 µM [falling, full curve].

`O=C(O)c1ccc2ncsc2c1`: the cell number change was 1.93%. Moreover, the AC50 under setting [2] is 0.103 µM [falling, full curve, poor fit].

Consider `Cc1cc(C)c(C(=O)OCC(=O)NCc2cccs2)c(C)c1`, for which the cell number change stood at 13.6%. The AC50 under setting [2] is 0.651 µM [rising, single point].

Take `O=C(NCC(=O)N1CCCCCC1)c1ccc(Cl)cc1`: the cell number change is 3.85%. Moreover, under setting [2], the AC50 is 20.6 µM [rising, single point].

Turning to `COc1ccc(CCNC(=O)CSc2nnc3c(n2)[nH]c2ccc(F)cc23)cc1OC`, the cell number change was found to be 24.4%. Besides, the AC50 under setting [2] is 6.51 µM [rising, single point].

Regarding `O=C(CCNS(=O)(=O)c1ccc(Cl)cc1)OCC(=O)c1ccc[nH]1`, the cell number change was -20.4%. The AC50 under setting [2] is 0.146 µM [falling, full curve].

With `CCCN(CC(=O)Nc1ccccc1C)C(=O)CCl`, the cell number change was determined as 55.8%. In addition, the AC50 under setting [1] is 23.1 µM [rising, single point]. Further, the AC50 under setting [2] is 16.4 µM [rising, single point].

Turning to `Cc1ccccc1-c1nnn(CC(=O)Nc2ccc3c(c2)OCO3)n1`, the cell number change came to 0.579%.

Values taken from PubChem BioAssay AID2685 (National Center for Advancing Translational Sciences (NCATS), 2010).
